We go through two molecules from PMC5818423.

Chains of the proteins cited; added tags and fusions are not shown.
UniProt P27487: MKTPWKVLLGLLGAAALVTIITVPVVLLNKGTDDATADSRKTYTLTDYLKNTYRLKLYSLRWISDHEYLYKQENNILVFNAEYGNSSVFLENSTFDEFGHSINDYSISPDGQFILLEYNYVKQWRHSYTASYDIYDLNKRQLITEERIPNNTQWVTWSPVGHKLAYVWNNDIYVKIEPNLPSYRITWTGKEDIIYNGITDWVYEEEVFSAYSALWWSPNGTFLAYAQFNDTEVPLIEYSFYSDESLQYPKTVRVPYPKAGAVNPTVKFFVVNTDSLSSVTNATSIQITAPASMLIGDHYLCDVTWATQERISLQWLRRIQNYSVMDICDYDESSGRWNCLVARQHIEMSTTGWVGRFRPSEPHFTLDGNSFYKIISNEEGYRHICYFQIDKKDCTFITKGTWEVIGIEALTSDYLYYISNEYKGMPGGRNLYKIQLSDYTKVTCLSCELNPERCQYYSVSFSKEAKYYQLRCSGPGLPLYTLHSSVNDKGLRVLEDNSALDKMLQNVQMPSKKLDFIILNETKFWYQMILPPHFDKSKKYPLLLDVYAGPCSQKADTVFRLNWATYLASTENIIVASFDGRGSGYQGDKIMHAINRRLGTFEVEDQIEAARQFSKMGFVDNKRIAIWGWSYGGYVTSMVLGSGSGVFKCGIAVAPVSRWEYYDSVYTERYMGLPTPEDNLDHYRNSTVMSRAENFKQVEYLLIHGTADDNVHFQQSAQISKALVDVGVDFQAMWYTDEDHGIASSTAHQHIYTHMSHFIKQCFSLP

For assay [1], the target named is A2AR-Nluc-spacer (human adenosine A2A receptor fused to NanoLuc on the N-terminal end, with spacer) (human) (UniProt P29274). The assay can be described thus: FRET or BRET; the same NanoBRET experiment between two HEK-293T cell populations with bovine ADA (0.01-10 ug/ml) added in solution; pair: soluble bovine ADA and the membrane protein on cells; only the binder purified. Background: BRET reads energy transfer from a luciferase to a nearby fluorophore.

Assay [2] has as its target CD26-YFP (human CD26 / dipeptidyl peptidase IV fused to YFP on the C-terminal end) (human) (UniProt P27487). Described as above.
In assay [3] the target is A2AR-Nluc-spacer (human adenosine A2A receptor fused to NanoLuc on the N-terminal end, with spacer) (human) (UniProt P29274). The assay can be described thus: FRET or BRET; NanoBRET between A2AR-Nluc-spacer HEK-293T cells and CD26-YFP HEK-293T cells, 10 min in HBSS without shaking, without or with human wild-type, Leu58Ala or Leu62Ala ADA, all at 1 ug/ml (ADA only partially purified from E. coli); 5 uM coelenterazine H.

For assay [4], the target named is CD26-YFP (human CD26 / dipeptidyl peptidase IV fused to YFP on the C-terminal end) (human) (UniProt P27487). Described as above.

No constants are given. Whether binding was seen depends on the method and setting. In cells and extracts the contact can be indirect. Some results given as binding are weak or reduced against the parent protein; the word gives no strength.

B1: Bovine adenosine deaminase (ADA) (enzyme, UniProt P56658 1-363)
chain: MAQTPAFNKPKVELHVHLDGAIKPETILYYGRKRGIALPADTPEELQNIIGMDKPLSLPEFLAKFDYYMPAIAGCREAVKRIAYEFVEMKAKDGVVYVEVRYSPHLLANSKVEPIPWNQAEGDLTPDEVVSLVNQGLQEGERDFGVKVRSILCCMRHQPSWSSEVVELCKKYREQTVVAIDLAGDETIEGSSLFPGHVKAYAEAVKSGVHRTVHAGEVGSANVVKEAVDTLKTERLGHGYHTLEDATLYNRLRQENMHFEVCPWSSYLTGAWKPDTEHPVVRFKNDQVNYSLNTDDPLIFKSTLDTDYQMTKNEMGFTEEEFKRLNINAAKSSFLPEDEKKELLDLLYKAYGMPSPASAEQCL
Regarding B1, the binding result in assay [1] and in assay [2] was “binds” throughout.

B2: Human wild-type adenosine deaminase (ADA) (enzyme, UniProt P00813 1-363)
chain: MAQTPAFDKPKVELHVHLDGSIKPETILYYGRRRGIALPANTAEGLLNVIGMDKPLTLPDFLAKFDYYMPAIAGCREAIKRIAYEFVEMKAKEGVVYVEVRYSPHLLANSKVEPIPWNQAEGDLTPDEVVALVGQGLQEGERDFGVKARSILCCMRHQPNWSPKVVELCKKYQQQTVVAIDLAGDETIPGSSLLPGHVQAYQEAVKSGIHRTVHAGEVGSAEVVKEAVDILKTERLGHGYHTLEDQALYNRLRQENMHFEICPWSSYLTGAWKPDTEHAVIRLKNDQANYSLNTDDPLIFKSTLDTDYQMTKRDMGFTEEEFKRLNINAAKSSFLPEDEKRELLDLLYKAYGMPPSASAGQNL
With B2, the binding result in assay [3] and in assay [4] was “binds” in each case.
